The test system of the experiment is P388 leukemia ip, CD2F1 mice, survival T/C. Put plainly: NCI In Vivo Anticancer Drug Screen. Data for tumor model P388 Leukemia (intraperitoneal) in CD2F1 (CDF1) mice. The note with it: T/C endpoint: median survival time, higher T/C = longer survival.
Where [1] appears, read: dose: 50.0 mg/kg/injection, schedule: Q01DX009 (ip), vehicle: saline.
The mark [2] stands for this setting: dose: 100.0 mg/kg/injection, schedule: Q01DX009 (ip), vehicle: saline.
The mark [3] stands for this setting: dose: 200.0 mg/kg/injection, schedule: Q01DX009 (ip), vehicle: saline.
The mark [4] stands for this setting: dose: 400.0 mg/kg/injection, schedule: Q01DX009 (ip), vehicle: saline.
The mark [5] stands for this setting: dose: 240.0 mg/kg/injection, schedule: Q01DX005 (ip), vehicle: saline with Tween-80.
Where [6] appears, read: dose: 200.0 mg/kg/injection, schedule: Q01DX005 (ip), vehicle: Klucel (hydroxypropylcellulose) (HPC).
The mark [7] stands for this setting: dose: 200.0 mg/kg/injection, schedule: Q01DX009 (ip), vehicle: saline with Tween-80.

Each structure is given as a SMILES string. The list shows only some results of the screen, not a fair sample: it gathers tests that were run many times, whatever their T/C, doses with no T/C, and many T/C values between a quarter and a half above the control. Further doses and runs are listed elsewhere. T/C: endpoint of the treated group in % of that of the vehicle group. Some entries give survivors of the animals treated and no T/C: the source holds a T/C of zero for them, seemingly a mark for toxic or unscored doses. Some doses without a T/C left all or most animals alive at the check, yet need not have been tolerated: the source hardly ever lists a survival T/C far under the control, and the zero likely stands for such cases as well. Survivors were counted at the toxicity check, usually on the fifth day, unless a day is given; later deaths do not show. Schedules are NCI's codes, read here as Q, the interval in days (D) or hours (H), X, the number of doses. For survival time, the PubChem record calls one and a half times the control and up active, and a quarter to a half above the control has no call in these data; cut-offs in other NCI protocols can differ. Some entries hold several experiments; their values stand side by side, smallest first. Signs of the kind (2×) count equal records among those shown. Some T/C values carry the count of animals alive at the toxicity check (mostly the fifth day); where none is given, no animal had died by that day.

Turning to `NC1[N-]C(C2CCCC[N-]2)CC2CCCCC21.NC1[N-]C(C2CCCC[N-]2)CC2CCCCC21.O=[N+]([O-])O.[Cu+2]` (configuration not stated), the survivor count by setting is: (dose: 25.0 mg/kg/injection, schedule: Q04DX002 (ip), vehicle: suspension in saline) 1 of 6; (dose: 100.0 mg/kg/injection, schedule: Q04DX002 (ip), vehicle: suspension in saline) 0 of 6; (dose: 200.0 mg/kg/injection, schedule: Q04DX002 (ip), vehicle: suspension in saline) 0 of 6; (dose: 400.0 mg/kg/injection, schedule: Q04DX002 (ip), vehicle: suspension in saline) 0 of 6.

For the molecule `Cc1c2c[n+](CCCCCCCC[n+]3ccc4c(C)c5c(c(C)c4c3)c3ccccc3n5CCO)ccc2c(C)c2c1c1ccccc1n2CCO`, the T/C (dose: 3.13 mg/kg/injection, schedule: Q04DX003 (ip), vehicle: distilled water + Tween-80) was 147 and 148 % of control. Further, the survivor count (dose: 25.0 mg/kg/injection, schedule: Q04DX003 (ip), vehicle: distilled water + Tween-80) is recorded as 5 of 6; the survivor count (dose: 50.0 mg/kg/injection, schedule: Q04DX003 (ip), vehicle: distilled water + Tween-80) is recorded as 6 of 6; the survivor count (dose: 100.0 mg/kg/injection, schedule: Q04DX003 (ip), vehicle: distilled water + Tween-80) was 5 of 6.

Consider `CC(C)(C)N1COC(c2ccccc2)C1` (configuration not stated), for which the survivor count (dose: 200.0 mg/kg/injection, schedule: Q01DX005 (ip), vehicle: saline) is recorded as 0 of 6.

Take `CC1(C)OC(=O)N(CO)C1=O`: the T/C is 126 % of control [5 of 6 alive] under setting [1], 133 % of control [5 of 6 alive] under setting [2] and 142 % of control under setting [3]. The survivor count under setting [4] is given as 2 of 6.

Turning to `COc1ccc2c(c1)OC(C)(C)[C@H](c1ccc(O)cc1)[C@@H]2c1ccccc1`, under setting [5], the survivor count was 6 of 6.

Regarding `CC(C)(O)/C=C/C(=O)C(C)(O)C1C(O)CC2(C)C3CC=C4C(CC(=O)C(O)C4(C)C)C3(C)C(=O)CC12C` (configuration not stated), the T/C by setting is: (dose: 0.5 mg/kg/injection, schedule: Q01DX009 (ip), vehicle: saline + alcohol) 130 % of control; (dose: 1.0 mg/kg/injection, schedule: Q01DX009 (ip), vehicle: saline + alcohol) 134 % of control.

On to `c1ccc(-c2nc(N3CCN(c4ccco4)CC3)c3c4c(sc3n2)CCC4)cc1`, for which the survivor count is, setting by setting: (dose: 100.0 mg/kg/injection, schedule: Q01DX005 (ip), vehicle: Klucel (hydroxypropylcellulose) (HPC)) 6 of 6; under setting [6], 6 of 6.

For `CC(C)C(NSC(=O)C1CCCN1Sc1ccc([N+](=O)[O-])cc1[N+](=O)[O-])C(=O)OCc1ccccc1` (configuration not stated), the survivor count is, setting by setting: (dose: 50.0 mg/kg/injection, schedule: Q01DX005 (ip), vehicle: Klucel (hydroxypropylcellulose) (HPC)) 6 of 6; under setting [6], 6 of 6.

`C[As](C)SCC(NC(=O)CCC(N)C(=O)O)C(=O)NCC(=O)O` (configuration not stated): the T/C is 125 % of control [5 of 6 alive] (dose: 12.5 mg/kg/injection, schedule: Q01DX009 (ip), vehicle: saline); 142 % of control (dose: 25.0 mg/kg/injection, schedule: Q01DX009 (ip), vehicle: saline); 125 % of control [5 of 6 alive] under setting [1]; 124, 127, 134, 164 % of control under setting [2]. In addition, the survivor count reads like this: under setting [3], 5 of 6; under setting [4], 0 of 6.

Turning to `CO[C@@H]1C2=CC=CC=C[C@H]2n2c(=O)n(C)c(=O)n21`, the survivor count is reported as 0 of 6 (dose: 600.0 mg/kg/injection, schedule: Q01DX005 (ip), vehicle: other) and 0 of 6 (dose: 1200.0 mg/kg/injection, schedule: Q01DX005 (ip), vehicle: other).

Turning to `CCCOc1cncc(C)n1`, the survivor count is 5 of 6 under setting [2] and 2 of 6 under setting [3].

Take `CCC(CN)C1=Nc2ccccc2C1` (configuration not stated): the survivor count (dose: 200.0 mg/kg/injection, schedule: Q04DX003 (ip), vehicle: saline) was 2 of 6 and the survivor count (dose: 400.0 mg/kg/injection, schedule: Q04DX003 (ip), vehicle: saline) is 0 of 6.

Take `[Cu+2].[NH-]C(CC(=O)O)C(=O)O.[NH-]C(CC(=O)O)C(=O)O` (configuration not stated): the survivor count runs as follows: (dose: 60.0 mg/kg/injection, schedule: Q01DX005 (ip), vehicle: saline with Tween-80) 1 of 6; (dose: 120.0 mg/kg/injection, schedule: Q01DX005 (ip), vehicle: saline with Tween-80) 0 of 6; under setting [5], 0 of 6.

Regarding `Nc1ccc2ccc(NS(=O)(=O)N3CCCCC3)cc2c1`, the T/C is, setting by setting: (dose: 25.0 mg/kg/injection, schedule: Q01DX005 (ip), vehicle: saline with Tween-80) 125 % of control; (dose: 50.0 mg/kg/injection, schedule: Q01DX005 (ip), vehicle: saline with Tween-80) 100, 107, 109 (2×), 111 % of control; (dose: 100.0 mg/kg/injection, schedule: Q01DX005 (ip), vehicle: saline with Tween-80) 111, 114, 115, 118, 137 % of control; (dose: 200.0 mg/kg/injection, schedule: Q01DX005 (ip), vehicle: saline with Tween-80) 118, 135, 156, 160, 161 % of control; (dose: 400.0 mg/kg/injection, schedule: Q01DX005 (ip), vehicle: saline with Tween-80) 135 [9 of 10 alive], 147, 153, 154 % of control; (dose: 600.0 mg/kg/injection, schedule: Q01DX005 (ip), vehicle: saline with Tween-80) 128 % of control [8 of 10 alive].

For `O=[Te]=O`, the survivor count is reported as 6 of 6 (dose: 25.0 mg/kg/injection, schedule: Q01DX005 (ip), vehicle: saline) and 0 of 6 (dose: 50.0 mg/kg/injection, schedule: Q01DX005 (ip), vehicle: saline).

Consider `NNS(=O)(=O)c1ccc(Cl)cc1`, for which the survivor count (dose: 300.0 mg/kg/injection, schedule: Q01DX009 (ip), vehicle: other) is 1 of 6.

Regarding `Cn1nc(/C=C/c2ccccc2)nc2c(=O)n(C)c(=O)nc1-2`, the survivor count is recorded as 0 of 6 (dose: 12.5 mg/kg/injection, schedule: Q01DX009 (ip), vehicle: saline with Tween-80); 0 of 6 (dose: 25.0 mg/kg/injection, schedule: Q01DX009 (ip), vehicle: saline with Tween-80); 0 of 6 (dose: 50.0 mg/kg/injection, schedule: Q01DX009 (ip), vehicle: saline with Tween-80); 0 of 6 (dose: 100.0 mg/kg/injection, schedule: Q01DX009 (ip), vehicle: saline with Tween-80); 0 of 6 under setting [7].

On to `CN(C)C1C(O)C2Oc3c(cc(O)c4c3C(=O)c3cc5c(c(O)c3C4=O)C(NC3CCCCC3)CC(C)(O)C5)C(C)(O2)C1O` (configuration not stated), for which the T/C (dose: 20.0 mg/kg/injection, schedule: Q01DX009 (ip), vehicle: other) is 133 % of control.

`COC1/C=C\OC2(C)Oc3c(C)c(O)c4c(O)c(c(/C=N/N(Cc5ccccc5)C56CC7CC(CC(C7)C5)C6)c(O)c4c3C2=O)NC(=O)/C(C)=C\C=C\C(C)C(O)C(C)C(O)C(C)C(OC(C)=O)C1C` (configuration not stated): under setting [7], the survivor count is given as 6 of 6.

In the case of `CC(=O)OC1CC(O)CC2=CCC3C4CCC(C(C)(O)C(O)CC5COC(=O)C5C)C4(C)CCC3C21C` (configuration not stated), the survivor count (dose: 128.0 mg/kg/injection, schedule: Q01DX005 (ip), vehicle: distilled water + Tween-80) is listed as 5 of 5.

These data come from PubChem BioAssay AID330 (DTP/NCI, 2004).
